Measurements as given in the supplement of paper PMC10849652.
This is one part of the list.

The chains behind the UniProt entries cited, without tags or fusion partners. Where a name states a change or a piece, a line headed by the entry shows the natural chain unless it says otherwise.
UniProt Q8NI22: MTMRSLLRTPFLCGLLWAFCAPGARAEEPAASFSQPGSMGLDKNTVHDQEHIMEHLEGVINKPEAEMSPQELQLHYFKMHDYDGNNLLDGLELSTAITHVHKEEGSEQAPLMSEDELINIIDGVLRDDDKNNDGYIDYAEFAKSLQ
UniProt Q9GZU1, whole entry, looked up: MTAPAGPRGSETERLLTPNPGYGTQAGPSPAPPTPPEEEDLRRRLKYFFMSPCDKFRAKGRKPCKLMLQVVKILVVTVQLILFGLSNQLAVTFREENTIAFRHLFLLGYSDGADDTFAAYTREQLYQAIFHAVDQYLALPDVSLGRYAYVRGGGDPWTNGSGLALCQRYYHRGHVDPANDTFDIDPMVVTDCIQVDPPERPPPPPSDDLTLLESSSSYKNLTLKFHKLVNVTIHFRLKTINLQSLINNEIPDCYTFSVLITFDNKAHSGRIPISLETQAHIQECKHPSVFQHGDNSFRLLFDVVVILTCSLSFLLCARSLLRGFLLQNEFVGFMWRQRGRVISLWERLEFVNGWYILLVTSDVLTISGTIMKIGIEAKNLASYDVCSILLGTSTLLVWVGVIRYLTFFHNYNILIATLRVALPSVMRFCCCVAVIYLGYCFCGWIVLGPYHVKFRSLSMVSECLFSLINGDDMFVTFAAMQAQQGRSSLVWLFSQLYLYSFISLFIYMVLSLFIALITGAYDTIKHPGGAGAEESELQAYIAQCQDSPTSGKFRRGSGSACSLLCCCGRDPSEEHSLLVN
UniProt Q8TC05: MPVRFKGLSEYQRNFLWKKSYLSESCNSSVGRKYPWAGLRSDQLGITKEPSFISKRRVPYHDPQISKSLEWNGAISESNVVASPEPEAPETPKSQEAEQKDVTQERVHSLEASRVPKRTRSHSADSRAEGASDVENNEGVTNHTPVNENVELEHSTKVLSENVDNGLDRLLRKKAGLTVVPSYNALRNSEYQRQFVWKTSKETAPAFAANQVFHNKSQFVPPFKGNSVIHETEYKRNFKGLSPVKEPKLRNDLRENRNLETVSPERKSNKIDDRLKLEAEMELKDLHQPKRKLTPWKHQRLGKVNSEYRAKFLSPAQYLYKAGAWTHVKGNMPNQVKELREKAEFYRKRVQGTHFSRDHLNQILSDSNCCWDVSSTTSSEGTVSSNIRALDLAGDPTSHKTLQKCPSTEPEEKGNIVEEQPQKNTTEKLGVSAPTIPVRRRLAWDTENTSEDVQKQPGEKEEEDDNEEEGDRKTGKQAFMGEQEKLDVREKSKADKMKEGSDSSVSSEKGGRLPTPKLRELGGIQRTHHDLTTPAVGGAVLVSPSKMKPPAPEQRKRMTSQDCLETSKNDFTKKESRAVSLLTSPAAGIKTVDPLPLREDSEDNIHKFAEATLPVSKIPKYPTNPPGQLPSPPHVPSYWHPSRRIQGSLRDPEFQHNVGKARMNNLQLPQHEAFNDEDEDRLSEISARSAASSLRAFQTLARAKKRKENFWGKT
UniProt Q86W50: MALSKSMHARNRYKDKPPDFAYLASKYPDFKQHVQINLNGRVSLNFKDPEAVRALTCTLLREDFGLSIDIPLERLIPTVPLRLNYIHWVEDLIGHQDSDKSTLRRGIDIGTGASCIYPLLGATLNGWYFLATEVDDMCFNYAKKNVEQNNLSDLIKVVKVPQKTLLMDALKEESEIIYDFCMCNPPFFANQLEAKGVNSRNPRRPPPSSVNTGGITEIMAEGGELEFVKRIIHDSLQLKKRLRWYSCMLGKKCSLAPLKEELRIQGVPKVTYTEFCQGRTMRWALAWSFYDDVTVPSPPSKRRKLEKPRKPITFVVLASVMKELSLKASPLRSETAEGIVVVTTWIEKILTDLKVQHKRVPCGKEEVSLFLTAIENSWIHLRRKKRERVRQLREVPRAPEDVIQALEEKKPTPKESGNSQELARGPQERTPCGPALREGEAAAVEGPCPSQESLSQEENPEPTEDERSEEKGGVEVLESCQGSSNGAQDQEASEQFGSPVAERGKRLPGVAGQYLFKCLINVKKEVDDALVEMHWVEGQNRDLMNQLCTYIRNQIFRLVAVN
UniProt Q00987, whole entry, looked up: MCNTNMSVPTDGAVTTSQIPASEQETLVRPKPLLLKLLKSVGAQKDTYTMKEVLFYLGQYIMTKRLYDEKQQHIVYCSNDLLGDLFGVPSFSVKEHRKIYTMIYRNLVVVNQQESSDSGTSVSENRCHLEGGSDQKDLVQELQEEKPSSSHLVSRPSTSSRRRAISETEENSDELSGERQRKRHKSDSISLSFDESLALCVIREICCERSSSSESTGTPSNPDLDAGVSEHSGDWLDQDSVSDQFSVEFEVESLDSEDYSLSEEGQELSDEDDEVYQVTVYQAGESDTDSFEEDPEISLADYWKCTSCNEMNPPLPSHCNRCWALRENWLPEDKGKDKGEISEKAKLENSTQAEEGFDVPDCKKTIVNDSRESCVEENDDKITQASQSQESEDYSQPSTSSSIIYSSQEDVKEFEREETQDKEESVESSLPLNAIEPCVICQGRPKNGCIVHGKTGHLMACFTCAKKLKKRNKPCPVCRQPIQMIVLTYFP
UniProt Q5VZF2: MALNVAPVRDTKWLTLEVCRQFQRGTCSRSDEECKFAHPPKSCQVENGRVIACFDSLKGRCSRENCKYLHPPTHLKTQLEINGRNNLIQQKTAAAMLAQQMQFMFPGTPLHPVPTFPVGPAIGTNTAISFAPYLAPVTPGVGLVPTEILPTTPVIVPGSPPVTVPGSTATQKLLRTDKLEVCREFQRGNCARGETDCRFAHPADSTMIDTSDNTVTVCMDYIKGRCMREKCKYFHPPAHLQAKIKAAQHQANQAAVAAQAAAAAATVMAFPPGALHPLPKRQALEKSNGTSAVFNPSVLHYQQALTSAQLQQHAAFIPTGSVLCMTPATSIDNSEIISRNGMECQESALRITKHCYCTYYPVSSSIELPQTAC
UniProt O14770: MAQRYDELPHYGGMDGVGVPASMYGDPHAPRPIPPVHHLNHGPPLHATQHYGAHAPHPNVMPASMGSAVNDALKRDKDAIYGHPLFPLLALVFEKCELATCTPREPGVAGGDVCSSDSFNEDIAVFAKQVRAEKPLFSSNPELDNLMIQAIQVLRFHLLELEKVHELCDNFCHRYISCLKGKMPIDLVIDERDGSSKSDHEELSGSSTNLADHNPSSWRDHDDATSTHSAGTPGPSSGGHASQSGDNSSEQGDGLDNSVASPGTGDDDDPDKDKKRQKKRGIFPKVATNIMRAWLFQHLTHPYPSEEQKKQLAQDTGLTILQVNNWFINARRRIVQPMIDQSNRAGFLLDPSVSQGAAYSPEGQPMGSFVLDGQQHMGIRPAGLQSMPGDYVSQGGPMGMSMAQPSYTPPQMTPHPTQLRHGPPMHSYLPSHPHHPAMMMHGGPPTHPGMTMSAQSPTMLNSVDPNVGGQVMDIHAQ
UniProt Q7Z434: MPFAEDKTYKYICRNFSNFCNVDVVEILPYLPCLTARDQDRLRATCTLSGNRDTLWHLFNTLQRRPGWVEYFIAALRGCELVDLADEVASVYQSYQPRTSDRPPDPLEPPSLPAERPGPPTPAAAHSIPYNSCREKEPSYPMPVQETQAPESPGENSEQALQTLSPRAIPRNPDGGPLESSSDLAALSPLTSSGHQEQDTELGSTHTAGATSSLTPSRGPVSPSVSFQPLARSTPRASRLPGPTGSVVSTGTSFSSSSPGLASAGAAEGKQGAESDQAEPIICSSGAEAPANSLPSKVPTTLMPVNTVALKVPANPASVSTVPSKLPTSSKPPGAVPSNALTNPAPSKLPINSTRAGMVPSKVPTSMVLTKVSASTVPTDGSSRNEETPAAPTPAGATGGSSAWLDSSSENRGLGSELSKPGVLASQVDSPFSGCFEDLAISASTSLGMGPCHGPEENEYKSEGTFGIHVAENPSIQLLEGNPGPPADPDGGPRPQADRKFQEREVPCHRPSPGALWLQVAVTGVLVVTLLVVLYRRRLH
UniProt Q9Y6X3: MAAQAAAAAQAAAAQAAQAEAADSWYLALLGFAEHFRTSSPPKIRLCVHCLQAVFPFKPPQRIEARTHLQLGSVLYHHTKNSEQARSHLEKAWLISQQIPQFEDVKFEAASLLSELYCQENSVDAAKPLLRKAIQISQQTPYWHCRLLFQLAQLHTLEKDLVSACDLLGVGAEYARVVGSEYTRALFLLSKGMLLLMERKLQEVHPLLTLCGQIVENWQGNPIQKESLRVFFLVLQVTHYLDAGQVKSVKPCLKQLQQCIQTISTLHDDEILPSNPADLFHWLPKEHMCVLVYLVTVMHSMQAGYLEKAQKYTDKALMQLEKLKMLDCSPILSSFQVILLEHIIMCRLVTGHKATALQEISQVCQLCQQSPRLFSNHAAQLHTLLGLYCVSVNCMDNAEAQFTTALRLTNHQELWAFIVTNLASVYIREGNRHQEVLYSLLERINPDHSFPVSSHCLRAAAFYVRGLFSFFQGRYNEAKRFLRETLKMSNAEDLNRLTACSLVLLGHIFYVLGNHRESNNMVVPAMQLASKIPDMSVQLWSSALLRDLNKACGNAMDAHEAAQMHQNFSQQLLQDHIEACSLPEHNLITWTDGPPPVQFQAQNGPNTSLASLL
UniProt Q14680: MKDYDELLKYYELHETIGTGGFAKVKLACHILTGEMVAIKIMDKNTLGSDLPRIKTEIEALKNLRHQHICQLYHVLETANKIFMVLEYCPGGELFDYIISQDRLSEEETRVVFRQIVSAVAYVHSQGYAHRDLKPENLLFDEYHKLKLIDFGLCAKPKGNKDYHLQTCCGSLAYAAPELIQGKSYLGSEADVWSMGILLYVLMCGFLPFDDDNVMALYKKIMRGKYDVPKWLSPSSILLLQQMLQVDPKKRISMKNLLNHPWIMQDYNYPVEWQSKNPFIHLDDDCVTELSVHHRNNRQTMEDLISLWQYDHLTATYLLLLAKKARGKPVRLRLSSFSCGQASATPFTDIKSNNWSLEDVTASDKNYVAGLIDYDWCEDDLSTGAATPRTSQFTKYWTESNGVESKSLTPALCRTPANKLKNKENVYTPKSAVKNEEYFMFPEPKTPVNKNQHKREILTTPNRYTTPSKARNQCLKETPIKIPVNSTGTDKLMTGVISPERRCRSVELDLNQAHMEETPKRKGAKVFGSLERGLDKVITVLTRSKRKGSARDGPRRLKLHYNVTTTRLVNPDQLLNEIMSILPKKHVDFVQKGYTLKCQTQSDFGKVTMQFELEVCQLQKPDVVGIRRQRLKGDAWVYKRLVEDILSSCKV
UniProt A0JLT2: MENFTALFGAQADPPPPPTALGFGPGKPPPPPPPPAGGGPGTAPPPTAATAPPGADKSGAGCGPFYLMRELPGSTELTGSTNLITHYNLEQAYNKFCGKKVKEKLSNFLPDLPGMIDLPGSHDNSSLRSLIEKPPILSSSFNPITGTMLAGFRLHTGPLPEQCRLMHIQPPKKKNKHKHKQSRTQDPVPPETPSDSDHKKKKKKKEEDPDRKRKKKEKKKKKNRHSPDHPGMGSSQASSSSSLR
UniProt Q9P086: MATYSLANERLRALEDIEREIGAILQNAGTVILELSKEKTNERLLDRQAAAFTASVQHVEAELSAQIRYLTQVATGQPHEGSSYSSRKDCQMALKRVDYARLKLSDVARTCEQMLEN
UniProt Q6ZNC8: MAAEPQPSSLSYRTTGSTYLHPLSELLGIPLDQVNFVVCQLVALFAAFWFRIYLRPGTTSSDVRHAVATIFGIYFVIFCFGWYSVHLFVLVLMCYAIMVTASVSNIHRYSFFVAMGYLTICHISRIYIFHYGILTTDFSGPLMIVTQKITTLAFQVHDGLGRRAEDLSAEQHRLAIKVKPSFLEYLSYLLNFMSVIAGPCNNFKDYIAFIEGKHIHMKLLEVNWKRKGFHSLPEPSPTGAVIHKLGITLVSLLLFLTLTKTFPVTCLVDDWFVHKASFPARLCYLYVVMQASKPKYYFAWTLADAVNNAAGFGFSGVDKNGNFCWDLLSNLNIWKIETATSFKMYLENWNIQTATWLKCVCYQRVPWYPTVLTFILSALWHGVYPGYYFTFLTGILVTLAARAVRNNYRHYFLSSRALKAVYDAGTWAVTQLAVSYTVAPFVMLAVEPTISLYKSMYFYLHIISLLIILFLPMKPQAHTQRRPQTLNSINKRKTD
UniProt Q06413, whole entry, looked up: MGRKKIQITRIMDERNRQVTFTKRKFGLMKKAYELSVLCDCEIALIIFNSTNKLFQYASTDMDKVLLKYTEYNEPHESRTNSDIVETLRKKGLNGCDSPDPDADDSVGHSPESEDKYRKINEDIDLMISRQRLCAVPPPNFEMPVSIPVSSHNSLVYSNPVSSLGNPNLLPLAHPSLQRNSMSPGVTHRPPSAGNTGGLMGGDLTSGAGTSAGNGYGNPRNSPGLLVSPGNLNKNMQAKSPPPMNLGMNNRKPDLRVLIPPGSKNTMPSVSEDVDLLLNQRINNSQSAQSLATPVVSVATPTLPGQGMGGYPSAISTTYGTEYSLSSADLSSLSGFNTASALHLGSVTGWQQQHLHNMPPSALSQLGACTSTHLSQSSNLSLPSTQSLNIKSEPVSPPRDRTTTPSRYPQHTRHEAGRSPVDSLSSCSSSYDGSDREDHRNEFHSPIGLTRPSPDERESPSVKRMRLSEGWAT

Columns and labels:
Assay in all cases: log2 fold change, soluble protein after heating vs DMSO (PISA); higher = thermal stabilisation; K562 lysate, 10 uM; active = over 0.2 and 3.5 SD of the protein, either way, in both replicates (recomputed)
vemurafenib = compound: CCCS(=O)(=O)Nc1ccc(F)c(C(=O)c2c[nH]c3ncc(-c4ccc(Cl)cc4)cc23)c1F [vemurafenib]
Summary of the method: (§1)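 Thermal stability, expressed as log-two fold change relative to solvent controls, is given from duplicates. Crude K562 extract in PBS pH 7.4 with 1 mM MgCl2, at 1 mg/mL protein, was treated with 10 μM compound for 30 min and heated in aliquots for 3 min across 48°C-58°C. After pooling, adjustment to 0.5% NP-40 at 4°C and centrifugation at 21,000xg for 90 min, supernatant protein was measured by TMTpro 16plex LC-MS/MS with channel sums equalised.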

[1] = compound: CCCS(=O)(=O)Nc1ccc(F)c(C(=O)c2c[nH]c3ncc(Cl)cc23)c1F
Summary of the method: as §1

barasertib = compound: CCN(CCCOc1ccc2c(Nc3cc(CC(=O)Nc4cccc(F)c4)[nH]n3)ncnc2c1)CCOP(=O)(O)O [barasertib]
Summary of the method: as §1

[2] = compound: CC[C@@H]1C(=O)N(C)c2cnc(Nc3ccc(C(=O)NC4CCN(C)CC4)cc3OC)nc2N1C1CCCC1
Summary of the method: as §1

volasertib = compound: CC[C@@H]1C(=O)N(C)c2cnc(Nc3ccc(C(=O)N[C@H]4CC[C@H](N5CCN(CC6CC6)CC5)CC4)cc3OC)nc2N1C(C)C [volasertib]
Summary of the method: as §1

[3] = compound: CCn1c(C(=O)N(C2CC2)C2CC2)cc2c3c(ncn3C)c(Nc3cc(C)n(C)n3)nc21
Summary of the method: as §1

[4] = compound: CCn1cc(-c2ccnc3[nH]c(-c4cccc(CN(C)C)c4)cc23)c(-c2ccc(NC(=O)N(C)C)cc2)n1
Summary of the method: as §1

[5] = compound: CN1CCC(CNc2ccc3ncc(-c4cccc(OC(F)(F)F)c4)n3n2)CC1
Summary of the method: as §1

saracatinib = compound: CN1CCN(CCOc2cc(OC3CCOCC3)c3c(Nc4c(Cl)ccc5c4OCO5)ncnc3c2)CC1 [saracatinib]
Summary of the method: as §1

sotrastaurin = compound: CN1CCN(c2nc(C3=C(c4c[nH]c5ccccc45)C(=O)NC3=O)c3ccccc3n2)CC1 [sotrastaurin]
Summary of the method: as §1

alvocidib = compound: CN1CC[C@H](c2c(O)cc(O)c3c(=O)cc(-c4ccccc4Cl)oc23)[C@H](O)C1 [alvocidib]
Summary of the method: as §1

Tubastatin A = compound: CN1CCc2c(c3ccccc3n2Cc2ccc(C(=O)NO)cc2)C1 [Tubastatin A]
Summary of the method: as §1

[6] = compound: CNC(=O)C1=CC=CC=C1NC2=NC(=NC=C2Cl)NC3=C(C=C(C=C3)N4CCOCC4)OC
Summary of the method: as §1

defactinib = compound: CNC(=O)c1ccc(Nc2ncc(C(F)(F)F)c(NCc3nccnc3N(C)S(C)(=O)=O)n2)cc1 [defactinib]
Summary of the method: as §1

[7] = compound: CNc1nc(-c2ccc3c(N)n[nH]c3c2)cc(N2C[C@@H](C(=O)NC3CCCCC3)CC[C@H]2C)n1
Summary of the method: as §1

encorafenib = compound: COC(=O)N[C@@H](C)CNc1nccc(-c2cn(C(C)C)nc2-c2cc(Cl)cc(NS(C)(=O)=O)c2F)n1 [encorafenib]
Summary of the method: as §1

[8] = compound: COC(=O)[C@H](CCSC)NC(=O)C1=C(C=C(C=C1)NC[C@H](CS)N)C2=CC=CC=C2
Summary of the method: as §1

alisertib = compound: COc1cc(Nc2ncc3c(n2)-c2ccc(Cl)cc2C(c2c(F)cccc2OC)=NC3)ccc1C(=O)O [alisertib]
Summary of the method: as §1

[9] = compound: COc1cc2nc(-c3cc(F)ccc3O)nc(N[C@@H]3CNC[C@H]3C(C)(C)O)c2cc1OC
Summary of the method: as §1

gefitinib = compound: COc1cc2ncnc(Nc3ccc(F)c(Cl)c3)c2cc1OCCCN1CCOCC1 [gefitinib]
Summary of the method: as §1

Measured: log2 fold change

MCFD2 (UniProt Q8NI22)
inactive: vemurafenib 0.002 | [1] -0.054 | barasertib 0.371 | [2] 0.037 | volasertib 0.062 | [3] -0.024 | [4] -0.278 | [5] -0.241 | saracatinib 0.017 | sotrastaurin 0 | alvocidib 0.114 | Tubastatin A 0.071 | [6] -0.014 | defactinib 0.215 | [7] 0.012 | encorafenib -0.02 | [8] 0.033 | alisertib 0.064 | [9] -0.027 | gefitinib -0.19

MCOLN1 (UniProt Q9GZU1)
inactive: vemurafenib 0.038 | [1] 0.017 | barasertib -0.064 | volasertib 0.051 | [3] 0.044 | [4] 0.022 | [5] 0.192 | saracatinib 0.078 | sotrastaurin -0.013 | alvocidib 0.016 | Tubastatin A 0.107 | [6] 0.068 | defactinib -0.004 | [7] -0.026 | alisertib 0.07 | [9] -0.099 | gefitinib -0.301

MDM1 (UniProt Q8TC05)
inactive: vemurafenib 0.024 | [1] 0.053 | [2] -0.05 | volasertib 0.024 | [3] 0.075 | saracatinib 0.013 | alvocidib -0.527 | Tubastatin A 0.007 | [6] -0.071 | defactinib -0.126 | [7] -0.328 | encorafenib 0 | [8] -0.12 | alisertib 0.018 | [9] -0.031 | gefitinib 0.14
active: [4] -1.5 | [5] 0.512

METTL16 (UniProt Q86W50)
inactive: vemurafenib 0.014 | [1] 0.017 | barasertib 0.042 | [2] -0.005 | volasertib -0.015 | [3] -0.001 | [4] 0.011 | [5] -0.018 | saracatinib -0.017 | sotrastaurin 0.017 | alvocidib 0.047 | Tubastatin A 0.021 | [6] 0.061 | defactinib 0.001 | [7] 0.037 | encorafenib 0.028 | [8] -0.018 | alisertib -0.013 | [9] 0.026 | gefitinib -0.009

MDM2 isoform 11 (UniProt Q00987)
inactive: vemurafenib -0.035 | barasertib -0.238 | [3] -0.03 | [4] 0.024 | [5] -0.038 | sotrastaurin 0.053 | alvocidib -0.127 | Tubastatin A 0.15 | [6] 0.041 | defactinib 0.158

MBNL2 (UniProt Q5VZF2)
inactive: vemurafenib -0.098 | [1] -0.076 | [2] 0.119 | volasertib -0.048 | [3] -0.06 | [4] -0.029 | [5] 0.296 | sotrastaurin -0.101 | alvocidib -0.049 | Tubastatin A 0.087 | [6] 0.066 | defactinib 0.026 | encorafenib 0.027 | [8] -0.096 | [9] 0.062

MEAF6 isoform 3 (UniProt Q9HAF1)
inactive: vemurafenib -0.015 | [1] 0.067 | barasertib -0.02 | [2] 0.061 | volasertib 0.023 | [3] 0.03 | [4] -0.103 | [5] 0.051 | saracatinib 0 | sotrastaurin -0.054 | alvocidib -0.077 | Tubastatin A 0.009 | [6] 0.028 | defactinib -0.028 | [7] 0.044 | encorafenib 0.018 | [8] 0.044 | alisertib 0 | [9] -0.014 | gefitinib 0.135

Quoted at random: two records from the list
METTL16 (UniProt Q86W50)
inactive: vemurafenib 0.014 | [1] 0.017 | barasertib 0.042 | [2] -0.005 | volasertib -0.015 | [3] -0.001 | [4] 0.011 | [5] -0.018 | saracatinib -0.017 | sotrastaurin 0.017 | alvocidib 0.047 | Tubastatin A 0.021 | [6] 0.061 | defactinib 0.001 | [7] 0.037 | encorafenib 0.028 | [8] -0.018 | alisertib -0.013 | [9] 0.026 | gefitinib -0.009

MEAF6 isoform 3 (UniProt Q9HAF1)
inactive: vemurafenib -0.015 | [1] 0.067 | barasertib -0.02 | [2] 0.061 | volasertib 0.023 | [3] 0.03 | [4] -0.103 | [5] 0.051 | saracatinib 0 | sotrastaurin -0.054 | alvocidib -0.077 | Tubastatin A 0.009 | [6] 0.028 | defactinib -0.028 | [7] 0.044 | encorafenib 0.018 | [8] 0.044 | alisertib 0 | [9] -0.014 | gefitinib 0.135

More results

METTL26 (UniProt Q96S19)
inactive: vemurafenib -0.171 | [1] -0.015 | barasertib 0.141 | [2] -0.067 | volasertib 0.039 | [3] 0.073 | [4] -0.023 | [5] -0.075 | saracatinib -0.018 | sotrastaurin -0.01 | alvocidib 0.006 | Tubastatin A -0.027 | [6] 0.172 | defactinib 0.215 | [7] -0.033 | encorafenib -0.033 | [8] 0.056 | [9] -0.002

MEIS2 (UniProt O14770)
inactive: vemurafenib 0.049 | [1] 0.027 | barasertib 0.122 | [2] 0.103 | volasertib -0.006 | [3] 0.013 | [4] -0.009 | [5] 0.012 | saracatinib 0.158 | sotrastaurin 0.044 | alvocidib -0.062 | Tubastatin A -0.065 | [6] 0.027 | defactinib 0.056 | [7] 0.053 | encorafenib -0.055 | [8] 0.154 | alisertib 0.001 | [9] -0.006 | gefitinib -0.036

MAVS (UniProt Q7Z434)
inactive: vemurafenib 0.026 | [1] 0.029 | barasertib 0.055 | [2] 0.043 | volasertib 0.005 | [3] -0.02 | [4] -0.096 | [5] 0.001 | saracatinib -0.01 | sotrastaurin 0.002 | alvocidib -0.001 | Tubastatin A -0.007 | [6] 0.031 | defactinib -0.001 | [7] 0.073 | encorafenib 0.02 | [8] -0.208 | alisertib 0.008 | [9] -0.034 | gefitinib -0.03

MAU2 (UniProt Q9Y6X3)
inactive: vemurafenib 0.031 | [1] -0.049 | barasertib 0.03 | [2] -0.101 | volasertib 0.025 | [3] 0.054 | [4] 0.046 | [5] 0.027 | sotrastaurin -0.029 | alvocidib 0.035 | Tubastatin A 0.016 | [6] 0.043 | defactinib 0.145 | encorafenib 0 | [8] 0.056 | [9] 0.025

MELK (UniProt Q14680)
inactive: vemurafenib -0.034 | [1] 0.139 | [2] 0.052 | volasertib -0.051 | [3] -0.089 | [4] 0.033 | [5] -0.018 | saracatinib 0.051 | sotrastaurin 0.034 | alvocidib -0.084 | Tubastatin A -0.053 | [6] -0.306 | defactinib -0.082 | [7] -0.013 | encorafenib -0.001 | [8] 0.146 | alisertib -0.032 | [9] -0.07 | gefitinib 0.044

MED19 (UniProt A0JLT2)
inactive: vemurafenib -0.019 | [1] 0.051 | barasertib 0.047 | volasertib 0.03 | [3] -0.092 | [4] 0.171 | [5] -0.136 | saracatinib -0.034 | sotrastaurin 0.001 | alvocidib 0.109 | Tubastatin A -0.141 | defactinib 0.149 | [7] 0.161 | [9] -0.076

MCCC2 (UniProt Q9HCC0)
inactive: vemurafenib 0.009 | [1] -0.008 | barasertib -0.035 | [2] 0.017 | volasertib 0.003 | [3] -0.009 | [4] -0.032 | [5] 0.015 | saracatinib -0.017 | sotrastaurin 0.002 | alvocidib 0.008 | Tubastatin A 0.008 | [6] -0.101 | defactinib 0.007 | [7] -0.022 | encorafenib -0.002 | [8] -0.002 | alisertib -0.007 | [9] -0.007 | gefitinib -0.016

MED11 (UniProt Q9P086)
inactive: vemurafenib 0.366 | barasertib 0.158 | saracatinib 0.131 | sotrastaurin -0.024 | [6] 0.166 | defactinib -0.077 | [7] -0.243

MBOAT1 (UniProt Q6ZNC8)
inactive: vemurafenib -0.196 | [1] 0.063 | barasertib -0.044 | [2] -0.056 | volasertib 0.054 | [3] 0.038 | sotrastaurin 0.471 | Tubastatin A 0.461 | [6] 0.049 | defactinib 0.052 | encorafenib 0.031 | [8] 0.164 | alisertib -0.049 | [9] -0.156 | gefitinib -0.113

MEF2C isoform 2 (UniProt Q06413)
inactive: vemurafenib 0.007 | [1] -0.061 | [2] 0.137 | volasertib 0.07 | [4] 0.068 | [5] -0.077 | saracatinib 0.011 | sotrastaurin 0.124 | alvocidib 0.082 | defactinib 0 | [7] 0.022 | encorafenib 0.056 | [8] -0.023 | alisertib -0.043 | [9] 0.043 | gefitinib 0.05

MCM10 (UniProt Q7L590)
inactive: vemurafenib 0.107 | [1] -0.02 | barasertib 0.022 | volasertib 0.025 | [3] 0.012 | [4] 0.101 | [5] -0.02 | saracatinib 0.001 | sotrastaurin 0.021 | alvocidib 0.053 | Tubastatin A 0.023 | [6] 0.245 | defactinib 0.047 | [7] 0.137 | alisertib -0.029 | [9] -0.047 | gefitinib 0.027

MFSD12 isoform 3 (UniProt Q6NUT3)
inactive: vemurafenib -0.073 | [1] 0.068 | volasertib 0.038 | [4] -0.16 | [5] -0.018 | saracatinib 0.103 | sotrastaurin -0.012 | alvocidib 0.024 | [6] -0.051 | defactinib 0.057 | [7] -0.041 | alisertib -0.084 | [9] 0.13 | gefitinib -0.031
